Assay: syringe/filter in vitro dissolution test in MFD solution
Format: physicochemical
Procedure: This example discloses an in vitro dissolution test termed the “syringe/filter” method. In this method the concentration of test compound in solution is determined as a function of time. Test solution is held in a syringe from which samples are expelled through a filter at pre-determined time points. In between expelling samples from the syringe, the syringe is rotated (50 rpm) on a wheel held in an oven at 37° C.
A 20 GA hypodermic needle was attached to the syringe, and 10 mL of a model-fasted duodenal (MFD) solution at 37° C. was drawn into the syringe.
The MFD solution was prepared using the following procedure. […] This mixture was then mixed thoroughly by vortex mixer (Fisher Vortex Genie), and the solvent removed rapidly by roto-evaporator (Rotavapor RE121, Büchi), leaving a dry white surface dispersion coating the flask. The surface dispersion was then reconstituted with 200 mL of the 37° C. phosphate buffered saline.
The needle was then replaced with a 13 mm, 0.45 μm polyvinylidine diflouride syringe filter (Scientific Resources, Titan), and the syringe was vigorously shaken for 30 sec. After 30 sec, 6 drops of the solution was expelled and a subsequent 13 drop sample was delivered to a test tube. After expelling the sample, the syringe plunger was drawn back to pull an air bubble into the syringe to aid in subsequent mixing and the syringe placed back on a rotating wheel in a 37° C. oven. […] The remaining solution in the syringe was mixed by rotating on a wheel at 50 rpm in a 37° C. temperature-controlled box.

COC(=O)C1=C(C)NC(C)=C(C(=O)OC)C1c1ccccc1[N+](=O)[O-] [Example C12, 1,4-dihydro-2,6-dimethyl-4-(2-nitrophenyl)-3,5-pyridinecarboxylic acid dimethyl ester]
C90 (concentration at 90 minutes, syringe/filter, MFD, 37° C.): 18 μgA/mL
C180 (concentration at 180 minutes, syringe/filter, MFD, 37° C.): 19 μgA/mL
C1200 (concentration at 1200 minutes, syringe/filter, MFD, 37° C.): 19 μgA/mL
MSSC (maximum supersaturated concentration) (syringe/filter method, MFD solution pH 6.5, 37° C., 0.45 μm filtrate): 19 μgA/mL

Source: patent US8337899B2, “Solid pharmaceutical dispersions with enhanced bioavailability” (Bend Research, Inc., priority 1997, dated 2012)
